In patent US20230365700A1:
Numbering of substitutions follows the chain as printed. Results are given in words; binding and its absence hold for the method and conditions named. Some results given as binding are weak or reduced against the parent protein; the word gives no strength.

Sequences of proteins named here, by UniProt entry; tags and fusion partners are left off. A change or cut given only in a name is not applied to a line headed by its entry. A line that says so, or that is headed by a name, gives the form on record, which may keep a tag or linker.
cynomolgus monkey CD40-his protein (Acro biosystems, Cat #CD0-C52H6) (G7PG38, form named): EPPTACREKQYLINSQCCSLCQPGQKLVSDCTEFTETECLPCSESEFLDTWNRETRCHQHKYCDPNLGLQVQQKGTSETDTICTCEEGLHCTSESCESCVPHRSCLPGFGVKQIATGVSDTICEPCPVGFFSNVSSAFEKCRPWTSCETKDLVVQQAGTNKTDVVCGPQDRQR

B1: humanized antibody huC1H1-V1 (antibody, human IgG2, kappa, V domains shown)
VH: EVQLVESGGGLVKPGGSLRLSCAASGFTFSNYGISWVRQAPGKGLEWVASISSGGDNTYYPDNVKGRFTISRDNAKNSLYLQMNSLRAEDTAVYYCARAGEKAMDYWGQGTLVTVSS
VL: EIVLTQSPATLSLSPGERATLSCRASQTINNNLHWYQQKPGQAPRLLIKYASQSISGIPARFSGSGSGTDFTLTISSLEPEDFAVYFCQQFSSWPLTFGGGTKVEIKR
B2: humanized antibody huC1H1-V2 (antibody, human IgG2, kappa, V domains shown)
VH: B1 VH with A49S
VL: B1 VL
B3: mouse anti-CD40 monoclonal antibody C1H1 (antibody, V domains shown)
VH: EVKLVESGGGLVKPGASLKLSCAASGFTFSNYGISWVRQTSDKRLEWVASISSGGDNTYYPDNVKGRFTISRENAKNTLYLQMSSLKSEDTALYYCARAGEKAMDYWGQGTSVTVSS
VL: DIVLTQSPVTLSVTPGDSVSLSCRASQTINNNLHWYQQKSHESPRLLIKYASQSISGIPSRFSGSGSGTDFTLSINSVETEDFGIYFCQQFSSWPLTFGAGTKLELK
B4: chimeric C1H1 antibody (antibody, human IgG1, kappa, V domains shown)
VH: B3 VH
VL: DIVLTQSPVTLSVTPGDSVSLSCRASQTINNNLHWYQQKSHESPRLLIKYASQSISGIPSRFSGSGSGTDFTLSINSVETEDFGIYFCQQFSSWPLTFGAGTKLELKR

target: cynomolgus monkey CD40-his protein (Acro biosystems, Cat #CD0-C52H6) (cynomolgus monkey) (UniProt G7PG38); assay: SPR Biacore

binding | Binder
binds | B1
binds | B2
binds | B3
binds | B4
